In publication PMC4227870:
No constants are given. Whether binding was seen depends on the method and setting. Binding seen in cells or lysates may run through a third protein. Some binding calls cover weakened binding; strength is not graded here.

Sequences of proteins named here, by UniProt entry; tags and fusion partners are left off. A change or cut given only in a name is not applied to a line headed by its entry. Residues count along the entry.
UniProt P17948, residues 27-785: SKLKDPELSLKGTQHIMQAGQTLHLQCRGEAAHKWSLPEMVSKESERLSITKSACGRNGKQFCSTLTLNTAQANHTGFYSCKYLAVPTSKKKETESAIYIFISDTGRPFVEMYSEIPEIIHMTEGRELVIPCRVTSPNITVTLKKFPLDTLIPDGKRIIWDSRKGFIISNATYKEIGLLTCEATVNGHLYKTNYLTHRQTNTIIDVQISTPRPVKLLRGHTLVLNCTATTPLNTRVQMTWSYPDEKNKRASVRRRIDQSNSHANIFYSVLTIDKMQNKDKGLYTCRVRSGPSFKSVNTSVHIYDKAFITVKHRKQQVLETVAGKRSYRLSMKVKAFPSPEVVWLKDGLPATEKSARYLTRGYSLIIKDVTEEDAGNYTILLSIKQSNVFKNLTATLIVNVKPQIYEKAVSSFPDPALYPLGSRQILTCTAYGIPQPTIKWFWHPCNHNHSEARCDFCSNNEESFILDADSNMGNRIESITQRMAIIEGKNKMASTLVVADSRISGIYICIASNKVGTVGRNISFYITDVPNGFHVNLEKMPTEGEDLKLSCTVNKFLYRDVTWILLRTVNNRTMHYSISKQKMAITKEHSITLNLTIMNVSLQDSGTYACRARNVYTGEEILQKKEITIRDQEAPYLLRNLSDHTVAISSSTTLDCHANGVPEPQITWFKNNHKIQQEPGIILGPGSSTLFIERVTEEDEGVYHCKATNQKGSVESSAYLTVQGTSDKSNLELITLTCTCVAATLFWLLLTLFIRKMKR
UniProt P35968, residues 20-1356: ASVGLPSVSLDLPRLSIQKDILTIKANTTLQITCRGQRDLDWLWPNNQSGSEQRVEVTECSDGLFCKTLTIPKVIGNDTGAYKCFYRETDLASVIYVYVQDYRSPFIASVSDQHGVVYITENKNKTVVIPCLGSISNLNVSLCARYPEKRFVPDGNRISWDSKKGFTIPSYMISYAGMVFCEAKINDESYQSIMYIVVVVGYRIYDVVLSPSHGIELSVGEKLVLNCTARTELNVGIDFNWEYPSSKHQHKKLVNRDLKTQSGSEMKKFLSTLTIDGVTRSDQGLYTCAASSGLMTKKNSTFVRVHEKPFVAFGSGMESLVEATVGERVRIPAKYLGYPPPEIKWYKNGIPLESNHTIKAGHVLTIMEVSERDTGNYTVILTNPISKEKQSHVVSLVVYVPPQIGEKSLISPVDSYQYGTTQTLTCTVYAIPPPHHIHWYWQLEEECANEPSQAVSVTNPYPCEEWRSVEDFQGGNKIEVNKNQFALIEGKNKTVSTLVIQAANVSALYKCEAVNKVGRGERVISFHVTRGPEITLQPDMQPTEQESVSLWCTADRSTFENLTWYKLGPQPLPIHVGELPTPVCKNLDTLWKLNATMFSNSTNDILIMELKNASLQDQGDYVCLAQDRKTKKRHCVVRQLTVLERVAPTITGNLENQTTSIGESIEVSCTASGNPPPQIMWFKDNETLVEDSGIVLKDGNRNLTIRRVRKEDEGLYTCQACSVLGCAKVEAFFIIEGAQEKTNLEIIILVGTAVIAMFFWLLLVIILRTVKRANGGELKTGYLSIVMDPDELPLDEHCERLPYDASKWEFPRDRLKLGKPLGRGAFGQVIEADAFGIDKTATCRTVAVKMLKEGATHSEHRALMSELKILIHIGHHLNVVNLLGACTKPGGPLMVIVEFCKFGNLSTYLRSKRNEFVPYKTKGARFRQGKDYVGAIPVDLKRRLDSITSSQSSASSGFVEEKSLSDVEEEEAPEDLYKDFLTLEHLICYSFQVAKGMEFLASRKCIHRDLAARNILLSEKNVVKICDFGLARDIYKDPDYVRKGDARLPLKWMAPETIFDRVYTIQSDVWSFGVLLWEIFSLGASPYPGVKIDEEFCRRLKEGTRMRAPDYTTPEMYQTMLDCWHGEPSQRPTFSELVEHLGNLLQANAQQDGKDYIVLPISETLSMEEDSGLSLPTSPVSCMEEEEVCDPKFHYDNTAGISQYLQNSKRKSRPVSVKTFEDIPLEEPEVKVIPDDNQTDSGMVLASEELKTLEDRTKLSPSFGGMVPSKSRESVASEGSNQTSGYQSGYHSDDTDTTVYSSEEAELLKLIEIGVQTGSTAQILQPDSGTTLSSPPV

Molecular target: Flt1 ΔCTD (deleted C-terminal domain, epitope tagged) (UniProt P17948)
Experiment: co-IP; 1 mg lysate (150 mM NaCl, 50 mM Tris pH 7.4, 1% Triton X-100) of HEK293 cells co-transfected with Flt1 ΔCTD and VEGFR2 or control plasmid, treated with 30 nM PMA with or without 10 U/ml heparin overnight; precipitated with ANTI-FLAG M2 affinity gel, immunoblotted for VEGFR2 (Flk1)

VEGFR2 (C-terminal GFP-tagged full length human VEGFR2) (from UniProt P35968 20-1356) (receptor)
binding: binds
